Experimental data published in publication PMC7899671 (eLife, 2021).

Biological target: α1L9'Tβ2γ2L, α1L9'T/V279Aβ2γ2L, and α1β2γ2L receptors
Experiment: MWC model of channel gating, global fit to estimated open probability
Conditions: read-out: KG (dissociation constant for GABA); MWC model parameter, global optimisation

## NCCCC(=O)O [GABA]
  Kd: 53 µM
